Assay results reported in patent publication US10067136B1, “Photoactivatable probes and uses thereof” (University of South Florida, priority 2016, dated 2018).

Assay: UV photoactivation in d4-methanol followed by 19F NMR (diazirine / linear diazo / carbene insertion product)
Type: physicochemical
Conditions: UV irradiation
For `OCc1ccc(C2(C(F)(F)F)N=N2)cn1` [compound 1, (5-(3-(trifluoromethyl)-3H-diazirin-3-yl)pyridin-2-yl)methanol], the “peak share of linear diazo intermediate during UV activation” value (“peak share” for short) was “about 30%”. For `OCc1ncc(C2(C(F)(F)F)N=N2)cn1` [compound 2, (5-(3-(trifluoromethyl)-3H-diazirin-3-yl)pyrimidin-2-yl) methanol], the “peak share” value was “about 30%”. With `OCc1ccc(C2(C(F)(F)F)N=N2)cc1` [compound 3, (4-(3-(trifluoromethyl)-3H-diazirin-3-yl)phenyl)methanol, reference compound] the “peak share” value was “about 30%”.
